Source: publication PMC7166090
Changes are numbered by the printed parent chain. pKd: −log10 of the molar value. For some assays here: A negative result means that nothing was seen under these conditions. For some assays here: Weaker means in comparison with the reference protein, sequence or condition of that experiment. For some assays here: Protein sequences can lack the tags named with them.

The chains behind the UniProt entries cited, without tags or fusion partners. Where a name states a change or a piece, a line headed by the entry shows the natural chain unless it says otherwise. Residues count along the entry.
UniProt P02769, 25-607: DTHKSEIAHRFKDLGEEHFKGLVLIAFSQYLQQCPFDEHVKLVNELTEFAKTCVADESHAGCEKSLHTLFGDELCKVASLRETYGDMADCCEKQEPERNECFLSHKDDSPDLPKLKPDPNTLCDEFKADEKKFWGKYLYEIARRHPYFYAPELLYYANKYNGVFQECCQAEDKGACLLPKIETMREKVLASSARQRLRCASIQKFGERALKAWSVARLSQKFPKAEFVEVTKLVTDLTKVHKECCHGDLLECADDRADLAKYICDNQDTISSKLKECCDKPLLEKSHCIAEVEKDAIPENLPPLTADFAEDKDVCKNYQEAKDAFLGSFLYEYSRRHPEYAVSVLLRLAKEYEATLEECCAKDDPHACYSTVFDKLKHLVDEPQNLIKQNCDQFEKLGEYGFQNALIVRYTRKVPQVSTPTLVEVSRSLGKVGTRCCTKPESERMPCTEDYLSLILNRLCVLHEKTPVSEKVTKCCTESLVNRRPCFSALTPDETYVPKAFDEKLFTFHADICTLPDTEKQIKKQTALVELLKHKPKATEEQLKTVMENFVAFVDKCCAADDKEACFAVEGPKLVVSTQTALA
UniProt P03771: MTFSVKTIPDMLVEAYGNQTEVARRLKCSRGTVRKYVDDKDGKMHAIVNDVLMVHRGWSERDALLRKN

Experiments:
BSA = BSA (UniProt P02769); test: FRET; settings: no significant difference from no protein; commercial protein
[1] = target: T1, His-NinH H55A R56A A15T,H55A,R56A (Bacteriophage lambda (cI857 Sam7)) (UniProt P03771); test: MST; settings: table: no binding, footnote: only weak binding, no Kd; MST: PBS pH 7.4 + 0.05% Tween-20, 22 C; recombinant protein; residues 1-68; protein details: N-His6; label: 5'-Cy5 on strand 1
T1 sequence (looked up): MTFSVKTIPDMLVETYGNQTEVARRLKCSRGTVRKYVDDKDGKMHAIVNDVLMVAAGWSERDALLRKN

[2] = target: T2, His-NinH H55A A15T,H55A (Bacteriophage lambda (cI857 Sam7)) (UniProt P03771); test: MST; settings: text: bound poorly; MST: PBS pH 7.4 + 0.05% Tween-20, 22 C; recombinant protein; residues 1-68; protein details: N-His6; label: 5'-Cy5 on strand 1
T2 sequence (looked up): T1 sequence (looked up) with A56R

[3] = target: T3, His-NinH S29A R30A A15T,S29A,R30A (Bacteriophage lambda (cI857 Sam7)) (UniProt P03771); test: MST; settings: MST: PBS pH 7.4 + 0.05% Tween-20, 22 C; recombinant protein; residues 1-68; protein details: N-His6; label: 5'-Cy5 on strand 1
T3 sequence (looked up): T1 sequence (looked up) with S29A, R30A, A55H, A56R

[4] = target: T4, His-NinH R30A A15T,R30A (Bacteriophage lambda (cI857 Sam7)) (UniProt P03771); test: MST; settings: MST: PBS pH 7.4 + 0.05% Tween-20, 22 C; recombinant protein; residues 1-68; protein details: N-His6; label: 5'-Cy5 on strand 1
T4 sequence (looked up): T1 sequence (looked up) with R30A, A55H, A56R

Question: Does “TGGGTCAACGTGGGCAAAGA (double strand) [DS20 FRET (o-FLU20/o-TET20)]” bind (BSA)?
Answer: Result: no binding

Question: Does “ACCGATCAAGAATTGTGCAT (double strand) [Cy520 (NinH consensus)]” bind [1]?
Answer: Result: binds more weakly

Question: And the pKd [2]?
Answer: Its pKd is less than 5.60.

Question: And the pKd [3]?
Answer: Its pKd is less than 5.26.

Question: What about the pKd [4] of the same sequence?
Answer: Its pKd is less than 5.00.
